Experimental findings from PMC12493026 are described below.

Sequences of proteins named here, by UniProt entry; tags and fusion partners are left off.
UniProt Q8C6M1: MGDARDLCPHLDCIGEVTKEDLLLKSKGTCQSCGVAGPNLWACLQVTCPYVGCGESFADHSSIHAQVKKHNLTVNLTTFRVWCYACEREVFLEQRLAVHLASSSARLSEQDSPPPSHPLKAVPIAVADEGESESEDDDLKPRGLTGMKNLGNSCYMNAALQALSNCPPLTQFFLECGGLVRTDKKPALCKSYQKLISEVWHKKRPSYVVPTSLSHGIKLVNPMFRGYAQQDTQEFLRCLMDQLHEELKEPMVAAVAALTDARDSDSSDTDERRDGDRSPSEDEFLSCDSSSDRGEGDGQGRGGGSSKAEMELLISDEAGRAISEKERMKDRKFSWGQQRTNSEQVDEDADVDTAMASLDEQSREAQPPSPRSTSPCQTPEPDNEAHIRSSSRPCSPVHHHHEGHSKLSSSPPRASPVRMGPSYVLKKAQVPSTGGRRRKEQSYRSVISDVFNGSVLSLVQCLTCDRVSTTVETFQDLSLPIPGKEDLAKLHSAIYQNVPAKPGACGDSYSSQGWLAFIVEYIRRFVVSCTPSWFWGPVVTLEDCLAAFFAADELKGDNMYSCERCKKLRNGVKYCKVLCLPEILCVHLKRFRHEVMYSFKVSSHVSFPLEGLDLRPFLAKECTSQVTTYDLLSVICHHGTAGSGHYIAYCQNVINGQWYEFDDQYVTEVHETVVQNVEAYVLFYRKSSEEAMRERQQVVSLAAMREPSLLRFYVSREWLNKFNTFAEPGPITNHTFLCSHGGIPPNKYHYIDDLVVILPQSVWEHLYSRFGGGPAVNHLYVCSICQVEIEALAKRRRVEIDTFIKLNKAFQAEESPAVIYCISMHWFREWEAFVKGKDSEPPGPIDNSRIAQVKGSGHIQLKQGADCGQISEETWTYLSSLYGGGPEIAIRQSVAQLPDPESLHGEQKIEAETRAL
UniProt D4A523: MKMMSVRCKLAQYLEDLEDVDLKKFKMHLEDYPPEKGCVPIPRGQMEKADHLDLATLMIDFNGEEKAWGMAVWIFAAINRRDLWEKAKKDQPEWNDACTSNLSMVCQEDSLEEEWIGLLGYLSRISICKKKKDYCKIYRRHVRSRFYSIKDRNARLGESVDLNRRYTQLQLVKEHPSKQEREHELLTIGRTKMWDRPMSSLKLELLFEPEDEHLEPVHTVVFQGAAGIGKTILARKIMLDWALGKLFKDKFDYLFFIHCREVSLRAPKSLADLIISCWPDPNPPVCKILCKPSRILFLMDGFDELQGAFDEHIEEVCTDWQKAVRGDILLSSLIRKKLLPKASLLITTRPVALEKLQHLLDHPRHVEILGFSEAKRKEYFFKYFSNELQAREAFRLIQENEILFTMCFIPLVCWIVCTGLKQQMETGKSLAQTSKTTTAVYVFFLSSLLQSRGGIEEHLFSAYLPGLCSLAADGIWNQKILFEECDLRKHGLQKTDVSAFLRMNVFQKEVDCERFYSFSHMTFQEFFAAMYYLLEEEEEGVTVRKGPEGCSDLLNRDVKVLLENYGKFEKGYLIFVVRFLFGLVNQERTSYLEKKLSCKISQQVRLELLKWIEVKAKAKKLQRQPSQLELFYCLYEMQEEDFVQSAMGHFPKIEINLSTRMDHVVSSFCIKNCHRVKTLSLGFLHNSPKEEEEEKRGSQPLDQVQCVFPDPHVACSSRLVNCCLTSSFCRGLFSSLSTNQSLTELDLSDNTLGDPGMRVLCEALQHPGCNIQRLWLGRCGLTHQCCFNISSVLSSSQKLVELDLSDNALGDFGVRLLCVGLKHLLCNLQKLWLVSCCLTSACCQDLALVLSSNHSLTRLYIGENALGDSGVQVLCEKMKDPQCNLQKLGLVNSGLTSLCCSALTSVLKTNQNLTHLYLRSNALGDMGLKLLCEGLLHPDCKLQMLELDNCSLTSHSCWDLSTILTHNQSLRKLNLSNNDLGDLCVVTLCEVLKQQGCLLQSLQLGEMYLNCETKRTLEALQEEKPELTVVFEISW

This experiment deals with Flag-USP20 expressed in cardiomyocytes (UniProt Q8C6M1). In words: affinity purification with mass spectrometry; cardiomyocytes transfected with Flag-USP20, LPS/Nig treated; anti-Flag antibody and protein G-Sepharose beads; bound proteins analysed by LC-MS/MS.

Results are given in words; binding and its absence hold for the method and conditions named. In cells and extracts the contact can be indirect. Here binding means that the protein was enriched with, or labelled near, the bait; the list need not be complete.

Regarding “NLRP3, endogenous in cardiomyocytes (LC-MS/MS screen) (from UniProt D4A523 1-1035)”, the binding entry is on record as “binds”.
